# ChEMBL document CHEMBL1123673, “Comparison of aminoglycoside antibiotics with respect to uptake and lethal activity in Escherichia coli” (J Med Chem, 1987)
# What was measured:
# [1] = tested on: Escherichia coli;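 further: escherichia coli cells, read-out is the rate of enhanced [3H]DHS uptake, C50 being the level that yields half of the maximal rate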
# [2] = tested on: Escherichia coli; assay: Estimated rate of [3H]DHS uptake in Escherichia coli K12 (ATCC 25868); format: functional; design: unit not given here
# In short: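 Cultures in tryptone-peptone broth at 37 °C with shaking, grown from OD600 ~0.05 to 0.20, then preexposed to antibiotic for 20 min at 37 °C. Cells pelleted, resuspended in equal volume fresh broth, pulsed 5.0 min at 37 °C with [3H]DHS (1.0 µCi/mL, 3.8 Ci/mmol). Samples filtered, washed with 0.1 M LiCl, scintillation counted. C50 = half-maximal rate estimated from dose-response curves.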
smiles,measurement,setting,value
CNC1C(O)C(OC2C(N)CC(N)C(OC3OC(CN)CCC3N)C2O)OCC1(C)O (configuration not stated),C50,[1],0.2 µM
same,Uptake at C50,[2],4.7
